Consider twelve sequences from paper PMC3967948.

For at least one entry, the source does not settle the construct or the ends of the probe. Negatives hold for the conditions tested. At least one verdict rests on a figure or table, not on a statement of the authors.

This data set relates to MBP-Tbx3 (purified). Put plainly: EMSA. To be noted: recombinant protein, protein details: MBP. (Mobility shift assays separate free from complexed probe on a gel.)

For the sequence AAAAAAAAAAAAAAAAAA [poly-A], the binding result (label: radiolabeled) is on record as “no binding”.

AAUAAUAAUAAUAAUAAU [poly-AAU]: the binding result (label: radiolabeled) is “no binding”.

For the sequence ACACACACACACACACAC [poly-AC], the binding result (label: radiolabeled) is on record as “no binding”.

On to AGAGAGAGAGAGAGAGAG [poly-AG], for which, where the note is “label: radiolabeled”, the binding result is “binds”.

With AUAUAUAUAUAUAUAUAU [poly-AU], the binding result (label: radiolabeled) is on record as “no binding”.

For CUCUCUCUCUCUCUCUCU [poly-CU], the binding result (label: radiolabeled) is “no binding”.

For GCCGCCGCCGCCGCCGCC [poly-GCC], the binding result (label: radiolabeled) is “no binding”.

For the sequence GCGCGCGCGCGCGCGCGC [poly-GC], the binding result (label: radiolabeled) is “no binding”.

As to GGUGGUGGUGGUGGUGGU [poly-GGU], the binding result was “binds”.

With GUGUGUGUGUGUGUGUGU [poly-GU], under “label: radiolabeled”, the binding result is listed as “binds”.

GUUGUUGUUGUUGUUGUU [poly-GUU]: under “label: radiolabeled”, the binding result is reported as “no binding”.

For UUUUUUUUUUUUUUUUUU [poly-U], the binding result (label: radiolabeled) was “no binding”.
